Measured values as given in paper PMC6121465.

Target: Prefoldin from Chaetomium thermophilum (CtPFD), reconstituted hexameric complex (Chaetomium thermophilum var. coprophilum strain NBRC 30,073)
Assay: pull-down; CtPFD bound in advance to a StrepTrap HP column; substrates unfolded in 6 M guanidine hydrochloride, diluted into 50 mM Tris-HCl pH 8.0, 100 mM KCl, 5 mM MgCl2 and applied at once; elution with 2.5 mM D-desthiobiotin; SDS-PAGE and western blot; both purified

binding: no binding
B1: Porcine heart citrate synthase, denatured (enzyme, UniProt P00889 28-464)
chain: ASSTNLKDILADLIPKEQARIKTFRQQHGNTVVGQITVDMMYGGMRGMKGLVYETSVLDPDEGIRFRGYSIPECQKMLPKAKGGEEPLPEGLFWLLVTGQIPTEEQVSWLSKEWAKRAALPSHVVTMLDNFPTNLHPMSQLSAAITALNSESNFARAYAEGIHRTKYWELIYEDCMDLIAKLPCVAAKIYRNLYREGSSIGAIDSKLDWSHNFTNMLGYTDAQFTELMRLYLTIHSDHEGGNVSAHTSHLVGSALSDPYLSFAAAMNGLAGPLHGLANQEVLVWLTQLQKEVGKDVSDEKLRDYIWNTLNSGRVVPGYGHAVLRKTDPRYTCQREFALKHLPHDPMFKLVAQLYKIVPNVLLEQGKAKNPWPNVDAHSGVLLQYYGMTEMNYYTVLFGVSRALGVLAQLIWSRALGFPLERPKSMSTDGLIKLVDSK

No constants are given. Whether binding was seen depends on the method and setting.
